Measurements reported in PubChem BioAssay AID308 (DTP/NCI, 2004).
The list is a part of this screen's results and no random one: it covers a few groups of compounds. Other doses and runs of a compound may be missing. T/C is the treated group as % of the vehicle group. Where survival is the endpoint, this PubChem deposit counts one and a half times the control or more as active, and values a quarter to a half above the control carry no call in these data; other NCI protocols may use other cut-offs. Some entries show no survivor count and are marked so; the dose need not have been tolerated. Schedule codes are those of the source, taken here to give the interval after Q, in days (D) or hours (H), and the number of doses after X. Some schedules carry Z or #; the key to these is not given. Some entries were tested several times; their values stand side by side, smallest first.

Tested on: BDF1 mice, L1210 6-MP/6-TG resistant leukemia ip, survival T/C
Assay: NCI In Vivo Anticancer Drug Screen. Data for tumor model L1210 Leukemia resistant to 6-MP and 6-Thioguanine; NSC 755, NSC 752 (intraperitoneal) in B6D2F1 (BDF1) mice
Details: T/C endpoint: mean survival time, higher T/C = longer survival
Method: The antitumor activity of compounds was measured in mice bearing transplantable tumors. Survival or tumor size were measured and the results are expressed as the measurement made in the treated group (T) divided by the measurement made in the vehicle treated control group (C). The tumor model used in this assay is L1210 Leukemia resistant to 6-MP and 6-Thioguanine; NSC 755, NSC 752 (intraperitoneal) in B6D2F1 (BDF1) mice

[1] = dose: 1.87 mg/kg/injection, schedule: Q01DX Z (ip), vehicle: saline
[2] = dose: 3.75 mg/kg/injection, schedule: Q01DX Z (ip), vehicle: saline
[3] = dose: 7.5 mg/kg/injection, schedule: Q01DX Z (ip), vehicle: saline
[4] = dose: 0.5 mg/kg/injection, schedule: Q01DX Z (ip), vehicle: carboxymethylcellulose (CMC)
[5] = dose: 1.25 mg/kg/injection, schedule: Q01DX Z (ip), vehicle: carboxymethylcellulose (CMC)
[6] = dose: 0.25 mg/kg/injection, schedule: Q01DX Z (ip), vehicle: saline
[7] = dose: 0.5 mg/kg/injection, schedule: Q01DX Z (ip), vehicle: saline
[8] = dose: 1.0 mg/kg/injection, schedule: Q01DX Z (ip), vehicle: saline
[9] = dose: 5.0 mg/kg/injection, schedule: Q01DX Z (ip), vehicle: saline
[10] = dose: 0.75 mg/kg/injection, schedule: Q01DX Z (ip), vehicle: saline
[11] = dose: 2.5 mg/kg/injection, schedule: Q01DX Z (ip), vehicle: saline

With `ClCCN(CCCl)Cc1nc2ccccc2[nH]1` the T/C [1] was 125 % of control [survivor count not shown], the T/C [2] was 125 % of control [survivor count not shown] and the T/C [3] was 167 % of control [survivor count not shown]. The T/C (dose: 10.0 mg/kg/injection, schedule: Q01DX Z (ip), vehicle: saline) was 122 [survivor count not shown] and 156 % of control [survivor count not shown], the T/C (dose: 15.0 mg/kg/injection, schedule: Q01DX Z (ip), vehicle: saline) was 125 % of control [survivor count not shown] and the T/C (dose: 20.0 mg/kg/injection, schedule: Q01DX Z (ip), vehicle: saline) was 102 % of control [survivor count not shown].

In the case of `NC(Cc1cccc(N(CCCl)CCCl)c1)C(=O)O` (stereo not given), the T/C (dose: 0.12 mg/kg/injection, schedule: Q01DX Z (ip), vehicle: carboxymethylcellulose (CMC)) is reported as 110 % of control [survivor count not shown], the T/C (dose: 0.25 mg/kg/injection, schedule: Q01DX Z (ip), vehicle: carboxymethylcellulose (CMC)) is reported as 104 % of control [survivor count not shown] and the T/C (dose: 0.37 mg/kg/injection, schedule: Q01DX Z (ip), vehicle: carboxymethylcellulose (CMC)) is reported as 110 % of control [survivor count not shown]. For the same compound, the T/C [4] was 122 % of control [survivor count not shown], the T/C (dose: 0.62 mg/kg/injection, schedule: Q01DX Z (ip), vehicle: carboxymethylcellulose (CMC)) was 141 % of control [survivor count not shown] and the T/C [5] was 230 % of control [survivor count not shown]. The T/C (dose: 2.5 mg/kg/injection, schedule: Q01DX Z (ip), vehicle: carboxymethylcellulose (CMC)) was 173 % of control [survivor count not shown], the T/C (dose: 5.0 mg/kg/injection, schedule: Q01DX Z (ip), vehicle: carboxymethylcellulose (CMC)) was 119 % of control [survivor count not shown] and the T/C (dose: 7.5 mg/kg/injection, schedule: Q01DX Z (ip), vehicle: carboxymethylcellulose (CMC)) was 89 % of control [survivor count not shown].

`ClCCNCCCl` was tested, and the T/C (dose: 25.0 mg/kg/injection, schedule: Q01DX Z (ip), vehicle: saline) was 109 % of control [survivor count not shown], the T/C (dose: 50.0 mg/kg/injection, schedule: Q01DX Z (ip), vehicle: saline) was 123 % of control [survivor count not shown] and the T/C (dose: 100.0 mg/kg/injection, schedule: Q01DX Z (ip), vehicle: saline) was 100 % of control [survivor count not shown].

`Nc1ncnc2c1ncn2CCN(CCCl)CCCl` was tested, and the T/C [6] was 109 % of control [survivor count not shown], the T/C [7] was 128 % of control [survivor count not shown] and the T/C (dose: 0.62 mg/kg/injection, schedule: Q01DX015 (ip), vehicle: saline) was 128 % of control [survivor count not shown]. The T/C [8] was 140 % of control [survivor count not shown], the T/C (dose: 1.25 mg/kg/injection, schedule: Q01DX015 (ip), vehicle: saline) was 150 % of control [survivor count not shown] and the T/C (dose: 2.0 mg/kg/injection, schedule: Q01DX Z (ip), vehicle: saline) was 166 % of control [survivor count not shown]. The T/C (dose: 2.5 mg/kg/injection, schedule: Q01DX015 (ip), vehicle: saline) was 198 % of control [survivor count not shown], the T/C (dose: 3.3 mg/kg/injection, schedule: Q01DX Z (ip), vehicle: saline) was 191 % of control [survivor count not shown] and the T/C (dose: 5.0 mg/kg/injection, schedule: Q01DX015 (ip), vehicle: saline) was 172 % of control [survivor count not shown]. The T/C [9] was 124 % of control [survivor count not shown], the T/C [3] was 127 % of control [survivor count not shown] and the T/C (dose: 11.2 mg/kg/injection, schedule: Q01DX Z (ip), vehicle: saline) was 87 % of control [survivor count not shown].

With `NC(Cc1ccccc1N(CCCl)CCCl)C(=O)O` (stereo not given) the T/C [4] was 242 % of control [survivor count not shown], the T/C (dose: 1.0 mg/kg/injection, schedule: Q01DX Z (ip), vehicle: carboxymethylcellulose (CMC)) was 231 % of control [survivor count not shown] and the T/C [5] was 142 % of control [survivor count not shown]. The T/C (dose: 1.87 mg/kg/injection, schedule: Q01DX Z (ip), vehicle: carboxymethylcellulose (CMC)) was 93 % of control [survivor count not shown], the T/C (dose: 2.0 mg/kg/injection, schedule: Q01DX Z (ip), vehicle: carboxymethylcellulose (CMC)) was 139 % of control [survivor count not shown] and the T/C (dose: 4.0 mg/kg/injection, schedule: Q01DX Z (ip), vehicle: carboxymethylcellulose (CMC)) was 86 % of control [survivor count not shown].

For `CC(C(=O)O)N(CCCl)CCCl` (stereo not given), the T/C [6] was 145 % of control [survivor count not shown], the T/C [7] was 139 % of control [survivor count not shown] and the T/C [10] was 161 % of control [survivor count not shown]. For the same compound, the T/C (dose: 0.93 mg/kg/injection, schedule: Q01DX Z (ip), vehicle: saline) was 242 % of control [survivor count not shown], the T/C [8] was 214 % of control [survivor count not shown] and the T/C [1] was 184 % of control [survivor count not shown]. The T/C [11] was 162 % of control [survivor count not shown], the T/C [2] was 143 % of control [survivor count not shown] and the T/C [9] was 115 % of control [survivor count not shown]. For the same compound, the T/C (dose: 50.0 micrograms/kg/injection, schedule: Q01DX Z (ip), vehicle: saline) was 108 % of control [survivor count not shown], the T/C (dose: 75.0 micrograms/kg/injection, schedule: Q01DX Z (ip), vehicle: saline) was 107 % of control [survivor count not shown] and the T/C (dose: 100.0 micrograms/kg/injection, schedule: Q01DX Z (ip), vehicle: saline) was 108 % of control [survivor count not shown]. For the same compound, the T/C (dose: 150.0 micrograms/kg/injection, schedule: Q01DX Z (ip), vehicle: saline) was 112 % of control [survivor count not shown].

In the case of `O=C(O)CN(CCCl)CCCl`, the T/C (dose: 0.37 mg/kg/injection, schedule: Q01DX Z (ip), vehicle: saline) is reported as 129 % of control [survivor count not shown], the T/C [10] is reported as 130 % of control [survivor count not shown] and the T/C [1] is reported as 172 % of control [survivor count not shown]. For the same compound, the T/C [11] was 209 % of control [survivor count not shown], the T/C [2] was 219 % of control [survivor count not shown] and the T/C [9] was 159 % of control [survivor count not shown].
